Literature values in patent US20080051417A1, “Uses of selective cyclooxygenase-1 inhibitors” (priority 2006, published 2008).
At least one structure is not confirmed: it was looked up by name or label, or the drawing left a doubt.

Tested on: 15-epi-LPXA4
Settings: 3 days oral 5 and 10 mg/kg/d, but not 2 mg/kg/d; each drug alone; cited from earlier work

Compound: CCc1ccc(CCOc2ccc(CC3SC(=O)NC3=O)cc2)nc1 (stereo not shown) [pioglitazone, Pioglitazone]
- effect on myocardial 15-epi-LPXA4 levels: increased
